Test results as given in patent US20060239988A1, “Neuronal regeneration and compound administration methods” (priority 2003, published 2006).
Results are given in words; binding and its absence hold for the method and conditions named. Binding seen in cells or lysates may run through a third protein. Some entries that bind do so weakly or less than the wild type.

Amino acid sequences for entries named in this document (tags omitted). Residues count along the entry.
UniProt P31000, residues 2-466: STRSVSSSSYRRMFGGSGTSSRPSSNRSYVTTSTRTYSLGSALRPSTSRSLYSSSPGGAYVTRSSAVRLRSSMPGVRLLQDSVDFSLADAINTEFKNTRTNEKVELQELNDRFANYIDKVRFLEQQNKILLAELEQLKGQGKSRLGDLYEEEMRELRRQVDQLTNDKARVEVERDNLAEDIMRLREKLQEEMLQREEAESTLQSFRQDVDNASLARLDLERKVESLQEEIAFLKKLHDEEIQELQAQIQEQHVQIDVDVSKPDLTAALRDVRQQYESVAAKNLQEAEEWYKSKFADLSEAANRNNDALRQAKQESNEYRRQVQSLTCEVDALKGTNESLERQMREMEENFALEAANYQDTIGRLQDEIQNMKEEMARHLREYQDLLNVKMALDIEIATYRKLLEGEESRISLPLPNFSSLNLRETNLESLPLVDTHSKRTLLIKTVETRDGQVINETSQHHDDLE
UniProt P21708, residues 2-380: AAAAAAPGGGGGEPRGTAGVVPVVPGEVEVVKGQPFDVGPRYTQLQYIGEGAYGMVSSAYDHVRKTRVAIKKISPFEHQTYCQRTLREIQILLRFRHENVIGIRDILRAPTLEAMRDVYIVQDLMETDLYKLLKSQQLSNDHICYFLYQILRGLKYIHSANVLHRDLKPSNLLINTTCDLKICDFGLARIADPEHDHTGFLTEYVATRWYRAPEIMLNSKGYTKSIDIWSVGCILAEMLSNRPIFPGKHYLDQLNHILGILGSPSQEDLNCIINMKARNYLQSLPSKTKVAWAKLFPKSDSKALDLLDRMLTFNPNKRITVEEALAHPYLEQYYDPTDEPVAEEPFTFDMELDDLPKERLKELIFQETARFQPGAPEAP
UniProt P63086, residues 2-358: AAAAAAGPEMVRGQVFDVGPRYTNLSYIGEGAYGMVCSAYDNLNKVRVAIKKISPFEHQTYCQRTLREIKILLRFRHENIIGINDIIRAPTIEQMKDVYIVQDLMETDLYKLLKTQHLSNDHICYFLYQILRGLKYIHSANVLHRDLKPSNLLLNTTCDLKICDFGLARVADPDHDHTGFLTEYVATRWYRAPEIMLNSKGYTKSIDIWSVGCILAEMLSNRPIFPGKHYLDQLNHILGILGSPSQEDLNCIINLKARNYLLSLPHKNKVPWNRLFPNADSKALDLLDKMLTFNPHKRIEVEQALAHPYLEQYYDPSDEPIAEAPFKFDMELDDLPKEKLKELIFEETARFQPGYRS

Key:
[1] = target: soluble endogenous vimentin of rat sciatic nerve axoplasm (rat) (UniProt P31000); assay: co-immunoprecipitation with anti vimentin antibody from rat sciatic nerve axoplasm, Western blot
[2] = target: soluble endogenous vimentin of rat sciatic nerve axoplasm (rat) (UniProt P31000); assay: co-immunoprecipitation from 500 micrograms rat sciatic nerve axoplasm 0-6 hours post-lesion, Western blot for pERK
[3] = target: ERK1 in the non-phosphorylated state, rat sciatic nerve axoplasm (rat) (UniProt P21708); assay: co-immunoprecipitation and GST-pull down assay, injured rat sciatic nerve axoplasm
[4] = target: ERK2 in the non-phosphorylated state, rat sciatic nerve axoplasm (rat) (UniProt P63086); assay: as above
[5] = target: phosphorylated ERK1, rat sciatic nerve axoplasm (rat) (UniProt P21708); assay: as above
[6] = target: phosphorylated ERK2, rat sciatic nerve axoplasm (rat) (UniProt P63086); assay: as above
[7] = target: ERK1 in the non-phosphorylated state, rat sciatic nerve axoplasm (rat) (UniProt P21708); assay: co-immunoprecipitation with anti vimentin antibody from rat sciatic nerve axoplasm, Western blot for MAPK
[8] = target: ERK2 in the non-phosphorylated state, rat sciatic nerve axoplasm (rat) (UniProt P63086); assay: as above
[9] = target: phosphorylated ERK1, rat sciatic nerve axoplasm (rat) (UniProt P21708); assay: co-immunoprecipitation with anti vimentin antibody from rat sciatic nerve axoplasm, Western blot for phospho-MAPK
[10] = target: phosphorylated ERK2, rat sciatic nerve axoplasm (rat) (UniProt P63086); assay: as above

Measured: binding

phosphorylated ERK2, rat sciatic nerve axoplasm (from UniProt P63086 2-358) (enzyme)
binds: [1] | [2]

soluble endogenous vimentin of rat sciatic nerve axoplasm (from UniProt P31000 2-466)
not listed: [1] | [2]
binds: all other assays above

phosphorylated ERK1, rat sciatic nerve axoplasm (from UniProt P21708 2-380) (enzyme)
binds: [1] | [2]
